The values are deposited in ChEMBL (CHEMBL3988442, “University of Dundee, Small-Polar-MMV Screening Library” (2021)).

Amino acid sequences for entries named in this document (tags omitted). Residues count along the entry.
UniProt Q8IDJ8, 1-583: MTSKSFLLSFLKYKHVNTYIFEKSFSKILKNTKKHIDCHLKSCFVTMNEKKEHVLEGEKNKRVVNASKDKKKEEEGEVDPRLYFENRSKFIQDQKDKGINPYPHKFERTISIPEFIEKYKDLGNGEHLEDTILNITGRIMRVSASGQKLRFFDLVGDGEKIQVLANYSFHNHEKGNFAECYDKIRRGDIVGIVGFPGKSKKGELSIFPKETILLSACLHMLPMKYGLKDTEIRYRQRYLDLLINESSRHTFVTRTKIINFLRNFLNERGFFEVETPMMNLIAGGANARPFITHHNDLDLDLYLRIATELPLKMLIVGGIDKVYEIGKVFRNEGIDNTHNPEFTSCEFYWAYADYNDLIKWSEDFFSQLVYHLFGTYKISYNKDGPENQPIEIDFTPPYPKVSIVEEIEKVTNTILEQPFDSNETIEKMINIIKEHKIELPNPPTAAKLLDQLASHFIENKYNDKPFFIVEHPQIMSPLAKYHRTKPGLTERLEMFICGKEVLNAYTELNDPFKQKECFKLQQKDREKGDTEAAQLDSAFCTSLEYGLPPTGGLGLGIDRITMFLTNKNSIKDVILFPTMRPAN
UniProt P9WPC5, whole entry: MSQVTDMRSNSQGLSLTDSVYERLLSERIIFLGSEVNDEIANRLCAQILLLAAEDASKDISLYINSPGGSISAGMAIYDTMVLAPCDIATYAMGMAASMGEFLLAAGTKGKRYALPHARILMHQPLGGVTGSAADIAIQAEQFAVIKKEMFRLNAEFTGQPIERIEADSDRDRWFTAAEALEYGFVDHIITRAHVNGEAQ
UniProt P9WPC3, whole entry partner: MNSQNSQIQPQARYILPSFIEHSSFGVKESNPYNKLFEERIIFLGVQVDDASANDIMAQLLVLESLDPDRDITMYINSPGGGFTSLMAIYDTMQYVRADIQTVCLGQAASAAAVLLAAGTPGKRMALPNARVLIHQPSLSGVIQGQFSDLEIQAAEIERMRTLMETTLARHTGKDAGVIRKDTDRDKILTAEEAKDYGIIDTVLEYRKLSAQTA
UniProt P9WFT3, whole entry: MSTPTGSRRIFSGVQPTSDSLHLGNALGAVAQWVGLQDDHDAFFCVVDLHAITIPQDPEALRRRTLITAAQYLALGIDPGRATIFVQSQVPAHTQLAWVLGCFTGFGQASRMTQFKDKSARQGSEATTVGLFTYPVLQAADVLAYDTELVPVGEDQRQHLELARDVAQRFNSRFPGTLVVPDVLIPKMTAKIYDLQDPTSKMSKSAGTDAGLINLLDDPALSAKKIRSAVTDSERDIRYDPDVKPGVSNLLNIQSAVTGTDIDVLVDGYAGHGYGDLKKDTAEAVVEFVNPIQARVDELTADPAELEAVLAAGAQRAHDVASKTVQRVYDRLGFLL

PfKRS1: 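Lysine-tRNA ligase, Plasmodium falciparum 3D7 (UniProt Q8IDJ8). Enzyme assay of the cytosolic lysyl-tRNA synthetase in 384-well plates, read by luminescence. Concentration: 30 µM. Higher reads as stronger inhibition, judged from the few compounds that gave an IC50. Size under these conditions: about 69,000 compounds, about 49 of them at 50% or above in at least one test.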
ClpP1P2: 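Protease assay of ClpP1P2, read by the AMC dye that it sets free. Target: ClpP1P2, Mycobacterium tuberculosis (UniProt P9WPC5 and UniProt P9WPC3). Compounds at 50 µM. Higher reads as stronger inhibition, judged from the few compounds that gave an IC50. Most other retested compounds had strongly negative values. About 69,000 compounds were tested under these conditions; 0.015% (about 10) showed 50% or more at least once.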
MtTrpRS: 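Enzyme assay of tryptophanyl-tRNA synthetase; the read-out is not stated. Target: Tryptophan-tRNA ligase, Mycobacterium tuberculosis (UniProt P9WFT3). Tested at 10 µM. Higher most likely means stronger inhibition; the record gives no direction and few retests gave an IC50. Size under these conditions: about 65,000 compounds, about 64 of them at 50% or above in at least one test.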

Each number is a percent effect as filed. The controls that fix the scale are not given in the record; negative values are as filed. Compounds were drawn at random from those tested, without regard to their results. A dash means the value is not listed here; it may have been measured.

SMILES,PfKRS1,ClpP1P2,MtTrpRS
Cc1cnn(CC2CCCCN2C(=O)Cn2nc(C)c(Cl)c2C)c1 (centres unmarked),6.486,-16.94,1.356
Cn1cccc1C(=O)N1CC[C@H]2C[C@@H](c3ccncn3)O[C@@H]2C1,10.02,-1.203,4.969
COCc1ccccc1CNC(=O)CN1CCCC1c1noc(C)n1 (centres unmarked),1.414,-38.59,-3.64
CC(C)CCc1n[nH]c(C(=O)O)c1I,4.376,-0.2926,1.694
O=C(NCCCn1cccn1)C1(c2ccccc2)CCOCC1,5.935,2.723,-4.275
Cc1nc(C(=O)N2CCN(C(C)c3ccccc3F)CC2)cs1 (centres unmarked),1.535,12.59,-4.863
Cc1cc(C)nc(C2CCCN2C(=O)c2cnco2)n1 (centres unmarked),0.6393,-5.906,13.11
COc1ccc(-n2cccn2)c(CN2CCOCC(CN(C)C)C2)c1 (centres unmarked),-5.161,-3.028,2.381
CSc1nc2cc(C)n(CC(N)=O)c2c(=O)n1CC(C)C,7.352,-9.459,-4.653
O=C(Cn1cc(I)cn1)Nc1cccnc1,5.583,-6.325,4.131
c1ccc(N2CCC3(COCCN(Cc4cccs4)C3)C2)nc1 (centres unmarked),0.4498,-9.777,-0.3317
COc1ccc(C(N)=O)cc1NCc1noc(-c2ccsc2)n1,5.121,-13.65,-1.958
CCOCCN1CCN(Cc2csc(-c3cnn(C)c3)n2)CC1,-1.353,-8.783,-4.834
COCCC(=O)N1CC[C@@H](N2CCN(C)CC2)[C@@H]1Cc1ccccc1,3.798,8.586,-6.7
O=C(NCc1ccc(Cl)cc1)C1CCCN(c2ccc3nncn3n2)C1 (centres unmarked),3.291,-20.31,-3.461
CCN(CC)CC(=O)Nc1ccc(-n2ccc(C(N)=O)n2)cc1,-3.531,-9.877,1.192
Cc1c[nH]c(CN(C)C(=O)c2cccc(CCC(C)(C)O)c2)n1,2.736,-16.15,3.02
Cc1nc[nH]c1CN1CCN(C(=O)c2cccs2)[C@H]2CS(=O)(=O)C[C@H]21,3.134,-20.46,3.759
O=C(c1cn(-c2ccccc2Cl)nn1)N1CCCSCC1,6.658,-0.4933,-0.1676
O=C(C1CCC1)N1C[C@@H]2CC[C@H](C1)N(S(=O)(=O)c1cccnc1)C2,3.758,-21.97,-5.49
OC1(CNc2ccc(Br)cn2)CCSCC1,-4.488,-2.063,1.83
CSCC[C@@H](CO)NC(=O)c1ccc2nc(NS(C)(=O)=O)sc2c1,0.8604,-4.119,-1.286
CN(C)Cc1nn(C)c2c1CN(S(=O)(=O)c1ccccc1F)C2,4.293,-14.6,1.833
Cc1c(C(=O)N2CCNC(=O)C2)sc2nc[nH]c(=O)c12,1.492,13.51,-0.0809
CCOc1cc(C(=O)N2CCCC(c3noc(CC)n3)C2)ccn1 (centres unmarked),1.925,-27.32,-6.09
CCc1n[nH]c(C2CN(C(=O)c3cnc(C)cn3)CCO2)n1 (centres unmarked),-1.853,1.118,-5.511
CCn1cc(CNC(=O)c2nn(CC)cc2Br)cn1,8.489,-6.051,4.444
CC(C)NC(=O)CC(C)NC(=O)N(C)Cc1cc(Cl)cn1C (centres unmarked),-1.844,1.364,-2.786
CCn1nc(C)c2nc(C(C)C)nc(N3CCOCC3)c21,-2.21,12.57,3.728
CCN1CCOC(CNCc2ccccc2OCc2ccccn2)C1 (centres unmarked),4.428,-2.115,-1.462
CC(C)CCOc1ccc(C(C)NC(=O)Cn2cccnc2=O)cc1 (centres unmarked),4.996,5.878,2.21
CC(NC(=O)N(C)CCOc1ccccc1F)c1nncn1C (centres unmarked),0.3421,-26.09,1.013
CC(NCCn1cccn1)c1ccccc1F (centres unmarked),1.343,2.348,-0.6988
O=C(O)c1cc(-c2ccc3c(c2)OCO3)cc(S(=O)(=O)NC2CC2)c1,3.492,-4.26,-2.021
Cc1nccn1CCC1CCN(C2CCC3(CCNCC3)CC2)CC1,-5.565,1.201,1.096
O=C(CSCc1ccccn1)NCC1CCN(C2CC2)C1 (centres unmarked),6.572,9.551,3.028
O=C1CCC(=O)N1c1nn(Cc2ccccc2Cl)cc1Cl,3.891,-1.08,-
O=C1CCCN1CCc1nc(-c2ccsc2)no1,0.9531,-8.569,0.3127
CC(C)NC(=O)N(Cc1cc(O)nc2ccccc12)C(C)C,-3.707,14.95,-5.502
O=C(COC[C@H]1CC[C@H]2[C@H](CCN2c2ccccn2)O1)N1CCCC1,2.59,-2.883,-2.057

Some entries from above, unchanged:

SMILES	PfKRS1	ClpP1P2	MtTrpRS
O=C(O)c1cc(-c2ccc3c(c2)OCO3)cc(S(=O)(=O)NC2CC2)c1	3.492	-4.26	-2.021
CCN1CCOC(CNCc2ccccc2OCc2ccccn2)C1 (centres unmarked)	4.428	-2.115	-1.462
c1ccc(N2CCC3(COCCN(Cc4cccs4)C3)C2)nc1 (centres unmarked)	0.4498	-9.777	-0.3317